Record: PubChem BioAssay AID1259405 (NCATS, 2018)

Test: 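Silenced genes that increase secreted GFP made by CHO cells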 (primary screen)
System: Chinese hamster CHO-K1 ovary cells with stable secreted eGFP expression
Knock-down reagent: single siRNA against mouse genes, 0.8 pmol siRNA per well (2 µl of 400 nM stock)
Timing: 3 days
Measured: 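Percent of the per-plate non-targeting control median for intracellular GFP per well by laser scanning cytometry and for cell viability by ATP luminescence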
Scale: GFP, % of control: higher = more GFP per well, higher productivity; viability (ATP), % of control: higher = more viable cells (more ATP)
Rule for the call: 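a knock-down is called active if GFP reaches 120% or more of non-targeting control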
The whole screen tested about 50,000 reagents; shown is a part drawn at random. About 4,000 of them (8%) were called active. 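Mouse siRNA library applied to hamster cells; one well for each siRNA.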 The numbers tell different reagents against one gene apart. No sequences are given here.

Gene | reagent | GFP, % of control | viability (ATP), % of control | outcome
Hmgb3 | 1 | 102 | 98.4 | inactive
Hmgb3 | 2 | 72.7 | 89.4 | inactive
Hmgb3 | 3 | 89.6 | 108 | inactive
Cetn4 | 1 | 113 | 65.3 | inactive
Cetn4 | 2 | 57.2 | 54.3 | inactive
Cetn4 | 3 | 50.5 | 59.8 | inactive
Abcc10 | 1 | 113 | 113 | inactive
Abcc10 | 2 | 63 | 57.1 | inactive
Abcc10 | 3 | 64.2 | 82.2 | inactive
Trib3 | 1 | 91.3 | 83.3 | inactive
Trib3 | 2 | 86.5 | 88 | inactive
Trib3 | 3 | 64.8 | 77.3 | inactive
Pgpep1 | 1 | 65.4 | 73.1 | inactive
Pgpep1 | 2 | 42.9 | 27.4 | inactive
Pgpep1 | 3 | 112 | 65.8 | inactive
Myod1 | 1 | 98.5 | 117 | inactive
Myod1 | 2 | 93.3 | 84.2 | inactive
Myod1 | 3 | 116 | 126 | inactive
Fbxo28 | 1 | 60.5 | 74.8 | inactive
Fbxo28 | 2 | 40.4 | 83.5 | inactive
Fbxo28 | 3 | 51.6 | 31.4 | inactive
Dcaf8 | 1 | 49.1 | 77.6 | inactive
Dcaf8 | 2 | 76.2 | 85 | inactive
Dcaf8 | 3 | 68.4 | 71.7 | inactive
Podnl1 | 1 | 57.2 | 42.4 | inactive
Podnl1 | 2 | 65.6 | 79.7 | inactive
Podnl1 | 3 | 37.7 | 83.4 | inactive
Hoxd12 | 1 | 84 | 101 | inactive
Hoxd12 | 2 | 45.7 | 80.6 | inactive
Hoxd12 | 3 | 90.2 | 57.4 | inactive
C130026L21Rik | 1 | 70.8 | 59.8 | inactive
C130026L21Rik | 2 | 64.4 | 70.7 | inactive
C130026L21Rik | 3 | 136 | 154 | active
Map3k21 | 1 | 43.2 | 91.2 | inactive
Map3k21 | 2 | 81.5 | 66.8 | inactive
Map3k21 | 3 | 85.1 | 74.6 | inactive
Cntrob | 1 | 79.5 | 65.8 | inactive
Cntrob | 2 | 57.8 | 60.4 | inactive
Cntrob | 3 | 65.5 | 57 | inactive
Ahi1 | 1 | 99.2 | 67.8 | inactive
Ahi1 | 2 | 87.8 | 80.8 | inactive
Ahi1 | 3 | 60 | 78.4 | inactive
Sort1 | 1 | 72.3 | 60.9 | inactive
Sort1 | 2 | 55.9 | 54.4 | inactive
Sort1 | 3 | 41.6 | 45.3 | inactive
Tamm41 | 1 | 76.3 | 86.5 | inactive
Tamm41 | 2 | 87.5 | 68.7 | inactive
Tamm41 | 3 | 52.1 | 51.3 | inactive
Gpr146 | 1 | 77.5 | 82.2 | inactive
Gpr146 | 2 | 99.6 | 117 | inactive
Gpr146 | 3 | 24.1 | 19.5 | inactive
Gpr146 | 4 | 104 | 78.6 | inactive
Gpr146 | 5 | 116 | 85.8 | inactive
Gpr146 | 6 | 101 | 53.1 | inactive
Col5a2 | 1 | 59.5 | 50.8 | inactive
Col5a2 | 2 | 108 | 101 | inactive
Col5a2 | 3 | 56.3 | 61.4 | inactive
Ubl4b | 1 | 88.5 | 68.4 | inactive
Ubl4b | 2 | 87.1 | 59 | inactive
Ubl4b | 3 | 74.6 | 80 | inactive
Rasl10a | 1 | 69 | 57 | inactive
Rasl10a | 2 | 56.1 | 60.7 | inactive
Rasl10a | 3 | 80.5 | 81.3 | inactive
Pcdh18 | 1 | 76.7 | 92.6 | inactive
Pcdh18 | 2 | 48 | 47.6 | inactive
Apoo | 1 | 116 | 127 | inactive
Apoo | 2 | 115 | 85.6 | inactive
Apoo | 3 | 66 | 72.4 | inactive
Gramd2b | 1 | 118 | 67.9 | inactive
Gramd2b | 2 | 72.7 | 88.4 | inactive
Gramd2b | 3 | 69.7 | 64.9 | inactive
Or13l2 | 1 | 48.3 | 48.8 | inactive
Or13l2 | 2 | 92 | 89.5 | inactive
Or13l2 | 3 | 57.3 | 40.1 | inactive
Akr1cl | 1 | 124 | 86.5 | active
Akr1cl | 2 | 54.2 | 61.7 | inactive
Akr1cl | 3 | 74.2 | 76.4 | inactive
Uchl3 | 1 | 105 | 112 | inactive
Uchl3 | 2 | 58.2 | 70.5 | inactive
Uchl3 | 3 | 75.5 | 64 | inactive
Cdyl | 1 | 112 | 104 | inactive
Cdyl | 2 | 88.3 | 63.9 | inactive
Cdyl | 3 | 100 | 102 | inactive
Or51ai2 | 1 | 111 | 42.1 | inactive
Or51ai2 | 2 | 79.3 | 61 | inactive
Or51ai2 | 3 | 86.5 | 72 | inactive

6 of these entries, set out differently:
Gramd2b #2 → GFP, % of control = 72.7; viability (ATP), % of control = 88.4; outcome = inactive
Gramd2b #3 → GFP, % of control = 69.7; viability (ATP), % of control = 64.9; outcome = inactive
Or13l2 #1 → GFP, % of control = 48.3; viability (ATP), % of control = 48.8; outcome = inactive
Or13l2 #2 → GFP, % of control = 92; viability (ATP), % of control = 89.5; outcome = inactive
Or13l2 #3 → GFP, % of control = 57.3; viability (ATP), % of control = 40.1; outcome = inactive
Akr1cl #1 → GFP, % of control = 124; viability (ATP), % of control = 86.5; outcome = active
